Test: general procedure: solution-phase peptide synthesis; isobutylchloroformate/N-methylmorpholine (coupling); TFFH/collidine (cyclisation)

Row | Substance | step yield (late stage modification step) | step yield (coupling step)
1 | Boc-Val-MeLeu-Ala-(D)Ala-MeLeu-MeLeu-MeValMeBmt(OAc)-Abu-Sar-OH | 95% | –
2 | Boc-Val-MeLeu-Ala-(D)Ala-MeLeu-MeLeu-MeVal-MeBmt(OAc)-Abu-Sar-EtVal-OtBu | – | 62%
3 | Boc-Val-MeLeu-Ala-(D)Ala-MeLeu-MeLeu-MeValMeBmt(OAc)-Abu-Sar-OMe | 98% | –

Reference: US6927208B1 (Debiopharm S.A., priority 1998, dated 2005)
